Results from the M2OR odorant receptor database.
The list shows a part of the results, in another mix than the full data. The calls were merged from several studies; some rest on single wells. The list shows a part of the results.

What was measured:
Details in all cases: stereoisomer not certain
[1] = target: T1, OR52K2 (Homo sapiens) (UniProt Q8NGK3)
T1 sequence (whole entry): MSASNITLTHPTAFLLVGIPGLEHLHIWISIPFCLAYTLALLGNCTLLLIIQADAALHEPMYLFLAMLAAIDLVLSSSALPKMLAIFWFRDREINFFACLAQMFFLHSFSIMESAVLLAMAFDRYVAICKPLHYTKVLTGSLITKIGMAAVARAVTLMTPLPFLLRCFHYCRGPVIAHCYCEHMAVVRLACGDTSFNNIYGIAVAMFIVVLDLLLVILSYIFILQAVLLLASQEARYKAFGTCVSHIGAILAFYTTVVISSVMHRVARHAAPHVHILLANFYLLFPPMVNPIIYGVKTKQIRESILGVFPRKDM
Procedure, shortened: (§1)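 Values were gathered from published papers (main text and supplementary material), with extra details requested from the original authors when needed, and checked for typos and inconsistencies. Each receptor–molecule pair is called responsive (active) if the original authors judged the measured signal statistically different from baseline, and non-responsive (inactive) otherwise. Assay methods varied by source, often transient mammalian cell-line luciferase assays. Recorded details include cell line, G-protein, co-transfected protein and tags.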

[2] = target: T2, OR52N5 (Homo sapiens) (UniProt Q8NH56)
T2 sequence (whole entry): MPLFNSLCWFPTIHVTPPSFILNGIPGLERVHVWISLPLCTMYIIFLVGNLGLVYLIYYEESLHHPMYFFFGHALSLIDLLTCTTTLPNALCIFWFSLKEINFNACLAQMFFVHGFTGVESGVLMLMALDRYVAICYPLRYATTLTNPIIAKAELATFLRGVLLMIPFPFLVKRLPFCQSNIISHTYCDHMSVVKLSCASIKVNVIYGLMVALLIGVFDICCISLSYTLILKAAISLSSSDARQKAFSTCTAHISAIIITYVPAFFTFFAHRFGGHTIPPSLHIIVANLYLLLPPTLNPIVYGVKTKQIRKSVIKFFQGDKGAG
Procedure, shortened: as §1

[3] = target: T3, OR56A1 (Homo sapiens) (UniProt Q8NGH5)
T3 sequence (whole entry): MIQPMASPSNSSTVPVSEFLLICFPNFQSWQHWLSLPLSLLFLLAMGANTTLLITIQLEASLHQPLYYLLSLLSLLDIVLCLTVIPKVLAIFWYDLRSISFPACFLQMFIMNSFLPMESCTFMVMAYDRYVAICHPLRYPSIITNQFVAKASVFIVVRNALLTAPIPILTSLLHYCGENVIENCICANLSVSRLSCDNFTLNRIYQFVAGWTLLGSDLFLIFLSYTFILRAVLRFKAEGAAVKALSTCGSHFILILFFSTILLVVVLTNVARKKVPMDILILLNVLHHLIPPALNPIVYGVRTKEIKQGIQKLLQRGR
Procedure, shortened: as §1

[4] = target: T4, OR56A4 (Homo sapiens) (UniProt Q8NGH8)
T4 sequence (whole entry): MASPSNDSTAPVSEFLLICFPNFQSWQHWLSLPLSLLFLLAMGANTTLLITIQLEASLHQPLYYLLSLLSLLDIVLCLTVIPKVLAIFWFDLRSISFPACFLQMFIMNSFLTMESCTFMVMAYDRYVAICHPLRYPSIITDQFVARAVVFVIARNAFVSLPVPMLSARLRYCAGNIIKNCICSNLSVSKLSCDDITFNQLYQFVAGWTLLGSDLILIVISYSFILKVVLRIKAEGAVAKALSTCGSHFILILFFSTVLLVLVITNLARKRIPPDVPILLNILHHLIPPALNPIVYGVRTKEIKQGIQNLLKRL
Procedure, shortened: as §1

[5] = target: T5, OR56A5 (Homo sapiens) (UniProt P0C7T3)
T5 sequence (whole entry): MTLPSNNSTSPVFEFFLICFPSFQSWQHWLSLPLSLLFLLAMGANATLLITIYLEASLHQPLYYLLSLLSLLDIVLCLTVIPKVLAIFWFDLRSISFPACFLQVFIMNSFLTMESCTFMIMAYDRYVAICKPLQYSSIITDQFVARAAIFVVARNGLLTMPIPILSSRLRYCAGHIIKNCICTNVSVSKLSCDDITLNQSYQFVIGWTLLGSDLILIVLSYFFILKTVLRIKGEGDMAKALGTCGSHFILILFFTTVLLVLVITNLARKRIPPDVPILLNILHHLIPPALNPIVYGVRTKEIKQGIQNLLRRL
Procedure, shortened: as §1

[6] = tested on: T6, OR5A1
T6 sequence (whole entry): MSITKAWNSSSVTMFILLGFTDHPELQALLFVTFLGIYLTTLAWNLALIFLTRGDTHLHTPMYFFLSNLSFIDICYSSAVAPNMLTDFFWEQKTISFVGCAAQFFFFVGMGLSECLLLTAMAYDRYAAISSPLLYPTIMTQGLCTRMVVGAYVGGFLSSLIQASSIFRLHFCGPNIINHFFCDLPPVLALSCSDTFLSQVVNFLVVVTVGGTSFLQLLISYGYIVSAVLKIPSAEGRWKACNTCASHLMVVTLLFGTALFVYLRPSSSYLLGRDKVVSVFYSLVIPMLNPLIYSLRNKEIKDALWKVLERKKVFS
Procedure, shortened: as §1

[7] = tested on: T7, OR5A1; remark: listed apart in the source
T7 sequence (whole entry): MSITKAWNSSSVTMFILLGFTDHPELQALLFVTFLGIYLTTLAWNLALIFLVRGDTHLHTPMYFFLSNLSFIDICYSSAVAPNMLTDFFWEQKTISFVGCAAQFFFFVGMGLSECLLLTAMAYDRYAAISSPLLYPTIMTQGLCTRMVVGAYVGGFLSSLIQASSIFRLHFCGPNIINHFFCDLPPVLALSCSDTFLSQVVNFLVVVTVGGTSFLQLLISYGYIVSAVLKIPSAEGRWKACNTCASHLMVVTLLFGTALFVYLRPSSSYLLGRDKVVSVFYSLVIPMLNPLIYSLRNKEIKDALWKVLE
Procedure, shortened: as §1

[8] = tested on: T8, OR5A1; remark: listed apart in the source
T8 sequence (whole entry): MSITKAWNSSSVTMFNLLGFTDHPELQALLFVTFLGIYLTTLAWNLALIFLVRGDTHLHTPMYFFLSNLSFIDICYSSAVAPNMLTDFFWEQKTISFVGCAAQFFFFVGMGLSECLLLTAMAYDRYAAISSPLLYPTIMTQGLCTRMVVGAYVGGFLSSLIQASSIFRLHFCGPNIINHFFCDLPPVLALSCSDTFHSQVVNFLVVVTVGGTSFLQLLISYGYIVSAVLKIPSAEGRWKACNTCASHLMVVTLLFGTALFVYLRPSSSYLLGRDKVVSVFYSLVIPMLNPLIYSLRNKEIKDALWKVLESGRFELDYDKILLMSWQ
Procedure, shortened: as §1

[9] = target: T9, OR5A2 (Homo sapiens) (UniProt Q8NGI9)
T9 sequence (whole entry): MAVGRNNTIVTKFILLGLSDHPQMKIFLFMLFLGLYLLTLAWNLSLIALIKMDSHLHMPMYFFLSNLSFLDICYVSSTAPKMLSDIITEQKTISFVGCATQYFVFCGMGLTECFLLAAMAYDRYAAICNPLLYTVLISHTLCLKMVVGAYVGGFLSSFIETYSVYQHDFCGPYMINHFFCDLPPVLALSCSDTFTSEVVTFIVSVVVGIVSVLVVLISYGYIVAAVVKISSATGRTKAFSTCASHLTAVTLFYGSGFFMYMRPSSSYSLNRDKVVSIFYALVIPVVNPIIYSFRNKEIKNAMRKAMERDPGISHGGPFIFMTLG
Procedure, shortened: as §1

[10] = target: T10, OR5AK2 (Homo sapiens) (UniProt Q8NH90)
T10 sequence (whole entry): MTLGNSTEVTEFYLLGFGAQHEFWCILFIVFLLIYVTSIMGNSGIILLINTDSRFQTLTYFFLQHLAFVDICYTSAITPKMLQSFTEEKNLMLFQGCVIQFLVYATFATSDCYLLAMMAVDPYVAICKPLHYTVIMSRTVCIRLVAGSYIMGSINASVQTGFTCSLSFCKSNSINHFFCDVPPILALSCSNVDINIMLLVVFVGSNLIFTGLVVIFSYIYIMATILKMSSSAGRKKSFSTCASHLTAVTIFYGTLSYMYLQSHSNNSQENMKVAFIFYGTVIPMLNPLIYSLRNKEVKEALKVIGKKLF
Procedure, shortened: as §1

Measured: odorant receptor agonist call

CCC(C)=O
inactive: all assays above
